Assay results reported in article PMC5321741, “Arylmethylamino steroids as antiparasitic agents” (Nature Communications, 2017).

The molecules below were run on haem (FeIIIPPIX, π-π dimer) (assay: spectrophotometric titration of haematin π-π dimer). Conditions: 0.2 M HEPES pH 7.5, 25.0 °C.
Format: binding

SMILES | log β (FeIIIPPIX)2.substrate | log KFeIIIPPIX.STS948
COc1ccc2c(c1)CCC1C2CC[C@@]2(C)C1CC[C@H]2NCc1cc2ccccc2cc1O (stereo partly drawn) [1o] | 12.3 ± 0.2 | 
COc1ccc2c(c1)CCC1C2CCC2(C)C(NCc3ccccc3OC)CCC12 (stereo not drawn) [1i] | 12.0 ± 0.2 | 
c1ccncc1 [pyr, pyridine, reference compound] | 2.25 ± 0.05 | 
COc1ccc2c(c1)CCC1C2CC[C@@]2(C)C1CC[C@H]2N (stereo partly drawn) [1a] | 12.0 ± 0.2 | 
COc1ccc2c(c1)CCC1C2CC[C@@]2(C)C1CC[C@@H]2N(CCCn1ccnc1)CCc1ccccn1 (stereo partly drawn) [STS 948] |  | 6.09 ± 0.06
CCN(CC)CCCC(C)Nc1ccnc2cc(Cl)ccc12 (stereo not drawn) [chloroquine] | 13.17 ± 0.07 | 
